From PMC4391862 come the findings set out here.

Sequences of proteins named here, by UniProt entry; tags and fusion partners are left off.
UniProt P53779: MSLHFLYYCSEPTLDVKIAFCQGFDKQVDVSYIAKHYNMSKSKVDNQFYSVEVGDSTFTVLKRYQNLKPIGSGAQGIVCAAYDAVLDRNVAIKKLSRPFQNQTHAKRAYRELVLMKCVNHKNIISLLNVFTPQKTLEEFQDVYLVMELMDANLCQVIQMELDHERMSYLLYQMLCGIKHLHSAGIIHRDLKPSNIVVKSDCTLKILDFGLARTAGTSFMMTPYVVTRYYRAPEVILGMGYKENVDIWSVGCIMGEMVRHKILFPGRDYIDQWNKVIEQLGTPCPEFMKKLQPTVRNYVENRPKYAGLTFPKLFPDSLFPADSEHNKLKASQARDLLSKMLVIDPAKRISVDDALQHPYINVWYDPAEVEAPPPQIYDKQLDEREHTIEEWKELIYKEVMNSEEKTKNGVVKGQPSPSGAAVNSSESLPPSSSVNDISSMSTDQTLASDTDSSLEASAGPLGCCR
UniProt P32121: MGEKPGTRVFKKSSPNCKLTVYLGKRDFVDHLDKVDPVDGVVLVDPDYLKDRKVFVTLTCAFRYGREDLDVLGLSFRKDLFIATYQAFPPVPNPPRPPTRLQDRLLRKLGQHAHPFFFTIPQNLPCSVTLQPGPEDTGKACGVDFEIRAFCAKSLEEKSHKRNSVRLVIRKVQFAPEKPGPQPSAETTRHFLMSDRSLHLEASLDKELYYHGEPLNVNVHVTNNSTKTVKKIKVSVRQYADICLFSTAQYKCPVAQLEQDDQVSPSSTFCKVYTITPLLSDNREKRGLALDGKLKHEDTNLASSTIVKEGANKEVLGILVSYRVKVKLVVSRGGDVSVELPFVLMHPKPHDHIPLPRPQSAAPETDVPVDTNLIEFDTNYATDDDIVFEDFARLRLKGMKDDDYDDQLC

These are yes or no findings as the source states them, for the method shown. Binding seen in cells or lysates may run through a third protein. Some results given as binding are weak or reduced against the parent protein; the word gives no strength.

The target in the assay is JNK3 (human (endogenous in SH-SY5Y)) (UniProt P53779). The assay can be described thus: co-IP; endogenous proteins from SH-SY5Y cells; non-denaturing lysis buffer (20 mM Tris HCl pH 8.0, 137 mM NaCl, 10% glycerol, 1% NP-40, 2 mM EDTA), primary antibody overnight at 4°C, protein A sepharose; cells treated with MPP+ (3 mM, 12 hr) or vehicle, with or without JNK3-N-Tat or JNK3-4A-Tat (20 μM) 1 hr before.

For the substance β-arrestin2 (from UniProt P32121 1-409), the binding entry is “binds”.
